Assay results as given in paper PMC5698439.
No constants are given. Whether binding was seen depends on the method and setting. Binding seen in cells or lysates may run through a third protein. Binding can be weak; no strength is given. Sequences can lack the tags named with a protein.

Biological target: T1, V5-tagged CORO2B (mouse) (UniProt Q8BH44)
T1 sequence: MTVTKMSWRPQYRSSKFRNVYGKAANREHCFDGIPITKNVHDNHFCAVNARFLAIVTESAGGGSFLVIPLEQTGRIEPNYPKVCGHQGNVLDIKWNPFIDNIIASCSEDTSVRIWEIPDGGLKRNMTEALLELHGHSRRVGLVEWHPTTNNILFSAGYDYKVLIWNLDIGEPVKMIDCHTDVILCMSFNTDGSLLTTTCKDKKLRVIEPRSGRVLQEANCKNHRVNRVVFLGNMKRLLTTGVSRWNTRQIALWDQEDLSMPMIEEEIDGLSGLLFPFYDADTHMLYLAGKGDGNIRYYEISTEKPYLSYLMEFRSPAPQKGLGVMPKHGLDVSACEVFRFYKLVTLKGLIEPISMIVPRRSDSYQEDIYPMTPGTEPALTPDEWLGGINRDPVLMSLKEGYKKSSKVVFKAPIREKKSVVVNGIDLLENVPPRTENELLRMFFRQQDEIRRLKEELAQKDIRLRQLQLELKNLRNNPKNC
Assay: co-IP; HEK293T cells transfected with the indicated constructs, 24 h; lysis in 1% Triton X-100 buffer (50 mM NaCl, 50 mM NaF, 15 mM Na4P2O7, 1 mM EDTA, pH 7.4); anti-V5 antibody 12 h at 4 °C, protein G-Sepharose beads, 5 washes; western blot

| binding | Substance |
| --- | --- |
| binds | TALIN |
| binds | VINCULIN (from UniProt P18206-2) |
